Results deposited as PubChem BioAssay AID1159584 (Peter MacCallum Cancer Centre, 2016)
Here is a random part of about 18,000 reagents tested. Not all columns of the deposit are shown. The record does not give: the amount of reagent, the time to read-out.

Aim: 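Knock-downs that harm CDH1-null cells more than parental MCF10A cells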 (primary screen)
Cell system: human MCF10A breast epithelial cells, parental and CDH1-null
Reagent: siRNA against human genes
Read-out: 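ATP luminescence (CellTiter-Glo) viability per line relative to mean mock wells over all plates, and the ratio of CDH1-null to parental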
Reading the numbers: CDH1-null / parental viability ratio: higher = CDH1-null cells survive relatively better than parental; CDH1-null viability vs mock: higher = more viable CDH1-null cells

| target | PubChem SID | CDH1-null / parental viability ratio | CDH1-null viability vs mock (fraction of mock) |
| --- | --- | --- | --- |
| TMEM64 (GeneID 169200) | SID135624522 | 0.96 | 1.17 |
| TLR1 (GeneID 7096) | SID135621502 | 1.02 | 0.82 |
| UBE4A (GeneID 9354) | SID134312318 | 1 | 0.5 |
| ANKMY2 (GeneID 57037) | SID134317975 | 0.99 | 0.76 |
| USP4 (GeneID 7375) | SID134310696 | 1.04 | 0.86 |
| BLOC1S4 (GeneID 55330) | SID134324799 | 0.92 | 0.83 |
| ZNF367 (GeneID 195828) | SID134320046 | 1.25 | 1.16 |
| KRT71 (GeneID 112802) | SID134319172 | 0.91 | 0.67 |
| QNG1 (GeneID 84267) | SID152150684 | 1.14 | 0.74 |
| USP42 (GeneID 84132) | SID135621140 | 1.07 | 1.07 |
| RALYL (GeneID 138046) | SID135623393 | 0.91 | 1.02 |
| MTF1 (GeneID 4520) | SID152148016 | 1.05 | 0.68 |
| CKAP5 (GeneID 9793) | SID152155217 | 1.55 | 0.34 |
| NMRK2 (GeneID 27231) | SID152147205 | 0.83 | 0.72 |
| PINX1 (GeneID 54984) | SID135623647 | 0.84 | 0.66 |
| SPATA7 (GeneID 55812) | SID135622618 | 0.96 | 0.54 |
| POLR2K (GeneID 5440) | SID135622236 | 0.86 | 0.62 |
| ABCG4 (GeneID 64137) | SID134313760 | 1.21 | 0.58 |
| MKNK2 (GeneID 2872) | SID152150791 | 0.83 | 0.68 |
| PLCXD1 (GeneID 55344) | SID152149616 | 1.03 | 1.13 |
| HPS4 (GeneID 89781) | SID152154977 | 1.07 | 0.86 |
| KIR2DL5B (GeneID 553128) | SID135625406 | 1.01 | 0.7 |
| BTG4 (GeneID 54766) | SID135622514 | 1.24 | 0.84 |
| CYP2W1 (GeneID 54905) | SID152155227 | 0.86 | 0.79 |
| TMED3 (GeneID 23423) | SID152151307 | 1.12 | 0.45 |
| FAM216B (GeneID 144809) | SID134322794 | 0.95 | 0.91 |
| PTPMT1 (GeneID 114971) | SID135624871 | 1.3 | 0.86 |
| TENT5A (GeneID 55603) | SID135624108 | 0.99 | 0.85 |
| RHOU (GeneID 58480) | SID134314579 | 1.09 | 1 |
| ACSM3 (GeneID 6296) | SID152147444 | 1.04 | 1 |
| ABCB1 (GeneID 5243) | SID134310118 | 1.02 | 1 |
| BST1 (GeneID 683) | SID134310744 | 0.79 | 0.52 |
| CCNF (GeneID 899) | SID152147986 | 0.97 | 0.96 |
| PPP1R11 (GeneID 6992) | SID152148314 | 1.02 | 0.67 |
| MGP (GeneID 4256) | SID152153082 | 0.86 | 0.44 |
| LSR (GeneID 51599) | SID135621818 | 1 | 0.68 |
| BEND6 (GeneID 221336) | SID152152002 | 1.08 | 0.8 |
| CNPY2 (GeneID 10330) | SID134321011 | 0.91 | 0.8 |
| LPIN3 (GeneID 64900) | SID135625201 | 1.02 | 0.64 |
| TBC1D16 (GeneID 125058) | SID134323210 | 1.03 | 0.95 |
| ABCD3 (GeneID 5825) | SID152155437 | 1.24 | 0.94 |
| ZC3H7A (GeneID 29066) | SID134321634 | 1.33 | 0.68 |
| BPIFA1 (GeneID 51297) | SID134313479 | 0.76 | 0.32 |
| WDR59 (GeneID 79726) | SID134325481 | 0.6 | 0.37 |
| ART3 (GeneID 419) | SID152156722 | 0.74 | 0.42 |
| APOC2 (GeneID 344) | SID134315339 | 1.23 | 0.48 |
